Laboratory results reported in patent publication US20080176792A1, “VEGFR-1 TARGETING PEPTIDES” (priority 2000, published 2008).
These are yes or no findings as the source states them, for the method shown. Some binding calls cover weakened binding; strength is not graded here.

Chains of the proteins cited; added tags and fusions are not shown. Residues count along the entry.
UniProt P17948, residues 27-758: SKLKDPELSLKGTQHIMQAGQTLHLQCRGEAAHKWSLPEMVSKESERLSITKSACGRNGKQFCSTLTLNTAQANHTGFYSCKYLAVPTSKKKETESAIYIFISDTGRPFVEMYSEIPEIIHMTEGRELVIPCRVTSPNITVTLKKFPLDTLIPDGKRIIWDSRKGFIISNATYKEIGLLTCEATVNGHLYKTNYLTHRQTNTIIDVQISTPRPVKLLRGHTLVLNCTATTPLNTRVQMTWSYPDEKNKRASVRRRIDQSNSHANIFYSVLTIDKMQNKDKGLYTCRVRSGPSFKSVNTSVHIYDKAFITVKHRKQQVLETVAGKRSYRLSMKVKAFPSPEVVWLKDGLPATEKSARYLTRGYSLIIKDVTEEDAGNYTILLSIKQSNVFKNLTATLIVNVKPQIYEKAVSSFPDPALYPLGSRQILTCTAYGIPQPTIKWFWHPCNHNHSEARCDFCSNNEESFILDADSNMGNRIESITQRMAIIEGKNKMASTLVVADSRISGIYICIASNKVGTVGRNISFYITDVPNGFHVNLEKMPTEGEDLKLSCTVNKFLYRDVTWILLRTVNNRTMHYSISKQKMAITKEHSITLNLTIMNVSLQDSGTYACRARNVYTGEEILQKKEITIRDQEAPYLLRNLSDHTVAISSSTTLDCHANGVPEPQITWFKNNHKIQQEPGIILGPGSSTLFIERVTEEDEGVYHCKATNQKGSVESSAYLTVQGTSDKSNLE

Key:
[1] = target: T1, recombinant human VEGFR-1 (human, UniProt P17948 27-758, limits assumed); test: competition of clone-19 phage binding to immobilized VEGFR-1 (not shown)
T1 construct: Bought; immobilized on microtiter wells (1 ug in 50 ul PBS); also called Flt1

[2] = target: T1, recombinant human VEGFR-1; test: summing up of the phage binding and competition assays on immobilized receptors

Question: CPQPRPLC (cyclized (peptides were synthesized, cyclized)) [synthetic cognate peptide CPQPRPLC (SEQ ID NO:6)] was tested. Which binding [1] did it give?
Answer: binds

Question: And the binding [2]?
Answer: binds
